Source: paper PMC4551942
Results are given in words; binding and its absence hold for the method and conditions named. Some results given as binding are weak or reduced against the parent protein; the word gives no strength.

Chains of the proteins cited; added tags and fusions are not shown.
UniProt O95793: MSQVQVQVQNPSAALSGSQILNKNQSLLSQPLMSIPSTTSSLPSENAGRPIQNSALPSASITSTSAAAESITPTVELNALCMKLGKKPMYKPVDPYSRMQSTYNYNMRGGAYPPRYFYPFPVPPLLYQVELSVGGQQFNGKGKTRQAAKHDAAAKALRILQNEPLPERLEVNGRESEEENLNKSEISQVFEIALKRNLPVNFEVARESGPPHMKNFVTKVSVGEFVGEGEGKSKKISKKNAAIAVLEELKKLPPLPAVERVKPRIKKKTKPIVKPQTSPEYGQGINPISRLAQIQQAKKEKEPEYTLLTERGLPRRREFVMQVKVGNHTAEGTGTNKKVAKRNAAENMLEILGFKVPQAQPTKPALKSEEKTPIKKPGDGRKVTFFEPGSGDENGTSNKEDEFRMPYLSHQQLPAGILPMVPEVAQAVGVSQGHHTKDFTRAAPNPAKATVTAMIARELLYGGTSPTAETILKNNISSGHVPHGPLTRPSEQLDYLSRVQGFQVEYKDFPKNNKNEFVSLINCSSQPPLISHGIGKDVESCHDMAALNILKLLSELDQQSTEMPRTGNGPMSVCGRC

Target: Staufen1 fused with EYFP at the C-terminus (human) (UniProt O95793)
Experiment: native gel or EMSA; EMSA; self-interaction seen at a high concentration range of Staufen1 (>100 nM); further conditions only in Supplementary Figure S2E

**Q.** How did the binding turn out when “Staufen1 fused with EYFP at the C-terminus (from UniProt O95793 1-577)” was run?
**A.** The binding was “binds”.
